Data: PubChem BioAssay AID493014 (National Center for Advancing Translational Sciences (NCATS), 2011)
Values joined by “and” are separate entries in the source; they are usually repeats but may differ in a detail not shown here. Equal values may be shown once. In all, about 340,000 compounds went through this assay and about 170 (0.05%) were called active. Inconclusive results, whose numbers are uncertain, are shown with a selection of clear calls. Calls come from the whole dose curve; as a rule, active = well fitted inhibition curve with a large enough effect in the signal ratio, with a control signal flat (not every such curve was filed as active); inconclusive = small, poorly fitted or top-dose-only effect, or effect the other way, or a change in a side signal; inactive = flat fitted curve, though single readings scatter; the % refers to the signal ratio. Where the call is inconclusive, the potency comes from a doubtful curve fit.

Test: qHTS Assay to Find Inhibitors of Chronic Active B-Cell Receptor Signaling;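 for activity change, negative = inhibition: plate controls were basal doxycycline-induced cells for no effect and cells given 10 µM MG132 for full effect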
Details: ABC-DLBCL IkBa-CBG/CBR reporter, luminescence ratio (green luciferase fused to IkBa over red control in TMD8 lymphoma cells), 4 h; activity change, negative = inhibition: at 46.1 µM (top of the series)
Method in brief: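 TMD8 human ABC-DLBCL cells with doxycycline-inducible IκBα–green luciferase fusion and unfused red luciferase, in 0.5% FBS medium; compounds up to 46 uM, 4 h at 37C. Green/red luminescence ratio, filter-overlap corrected, fitted to concentration-response curves.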
Potency is the fitted concentration of half-maximal effect.

| SMILES | Potency | activity change, negative = inhibition |
| --- | --- | --- |
| CCC(=O)Nc1cccc(C(=O)/C=C/c2ccc(F)cc2)c1 | inconclusive: 10 µM [falling, partial curve, poor fit] |  |
| Cc1cccc(OC(C)C(=O)Nc2cc(Cl)ccc2-n2cncn2)c1 (stereo unspecified) |  | inconclusive: 5.5% |
| Cc1nnc(SCc2cccc(Cl)c2)n(N)c1=O |  | inconclusive: 10.4% |
| Brc1ccc2c(c1)CNc1c(ncnc1N1CCOCC1)O2 |  | inconclusive: -1.27% |
| Cc1nc(NCc2ccccc2)[nH]c(=O)c1CCC(C)C |  | inconclusive: -1.35% |
| Cc1ccc(CN2C(=O)C(Cc3ccccc3)Nc3ncnc(N4CCN(c5ccccc5)CC4)c32)cc1 (stereo unspecified) |  | inactive: -0.0974% |
| Cc1c(C(=O)Nc2ccc(-c3nnc4n3CCCCC4)cc2)oc2c1ccc1ccccc12 | inconclusive: 2.59 µM [activator, partial curve] |  |
| O=C(/C=C/c1cccs1)NC(=S)Nc1ccc(C(=O)O)cc1 | inconclusive: 0.708 µM [falling, full curve, poor fit] |  |
| CCCN(CCC)CCCNC(=S)Nc1ccc2nc(N3CCN(CC)CC3)cc(C)c2c1 |  | inconclusive: -16.3% |
| CCOc1ncccc1C(=O)OCc1ccccc1 |  | inconclusive: 6.22% |
| COc1cccc(C(=O)Nc2ccc3c(c2)C(=O)N(CC2CCCO2)C3=O)c1 (stereo unspecified) |  | inconclusive: -1.74% |
| CN(CC(=O)N1CCN(c2ncccn2)CC1)S(=O)(=O)c1ccc(Cl)cc1 |  | inconclusive: -0.999% |
| Clc1nccnc1N/N=C/c1ccc(Br)cc1 |  | inactive: -12.7% |
| C=CCn1c(SCC(=O)NCC)nnc1-c1cc2c(s1)CCC(CC)C2 (stereo unspecified) |  | inconclusive: -6.32% |
| CCN(CC)S(=O)(=O)c1ccc(N2CCOCC2)c(NC(=O)c2c3c(nc4ccccc24)CCC3)c1 |  | inconclusive: 1.28% |
| CC/C(=N\NC(=S)Nc1ccc(OC)cc1)c1ccc(OC(F)F)cc1 |  | inactive: -2.46% |
| C#CCOCCOCCOCCNc1nc(N2CCN(C(=O)CCCCCCCCCCNC(=O)[C@@H]([C@H](C)O)n3cc(C)nn3)CC2)nc(N2CCN(C(=O)CCCCCCCCCCNC(=O)[C@@H]([C@H](C)O)n3cc(C)nn3)CC2)n1 |  | inactive: 1.14% |
| O=C(CSC1=Nc2ccccc2C2CC=NN12)Nc1ccc(F)c(F)c1F (stereo unspecified) |  | inactive: -2.06% |
| Cc1oc(-c2cc(F)ccc2F)nc1CN1CCCN(C(=O)c2ccco2)CC1 |  | inactive: 1.45% |
| CCOc1ccccc1C(=O)N1CCN(c2cccc(Cl)c2)CC1 | inconclusive: 0.92 µM [falling, partial curve] |  |
| Cc1nn(Cc2ccccc2)c(Cl)c1C(=O)OCC#N | inconclusive: 22.4 µM [falling, single point] |  |
| Cc1cc(OCC(=O)N(Cc2ccccc2)C2CCS(=O)(=O)C2)ccc1Cl (stereo unspecified) | inconclusive: 11.2 µM [falling, partial curve] |  |
| CCCCn1ccnc1C(=O)c1cccc(S(=O)(=O)N2CC(C)CC(C)C2)c1 (stereo unspecified) | inconclusive: 1.64 µM [rising, partial curve] |  |
| CC[C@]12c3[nH]c4ccc(Cl)cc4c3CCN1C(=O)[C@@H](CC(=O)NCc1cccc(C(F)(F)F)c1)C[C@@H]2C(=O)N1CCN(C(=O)C2CC2)CC1 |  | inconclusive: -18.3% |
| Cc1ccc(NC(=O)Nc2ccc3c(c2)OCO3)c(Br)c1 |  | inactive: 3.97% |
| COc1cc2c(cc1OC)CN(C(=S)Nc1ccc(C)cc1C)CC2 |  | inconclusive: 8.42% |

| SMILES | Potency | activity change, negative = inhibition |
| --- | --- | --- |
| Clc1ccccc1/C=C/c1ccnc2ccccc12 | inconclusive: 22.4 µM [falling, single point] |  |
| CC(C)Sc1cc(Cl)nc(NC(=O)Nc2ccccc2)n1 | inconclusive: 14.1 µM [falling, partial curve, poor fit] |  |
| C=CCN1C(=O)S/C(=C\c2ccc3c(c2)n(C)c(=O)n3C)C1=O |  | inconclusive: 0.589% |
| COc1cccc(CNC(=O)CCC2CCCN(C/C=C/c3ccccc3OC)C2)c1 (stereo unspecified) | inconclusive: 15.8 µM [falling, partial curve, poor fit] |  |
| CCOc1cc(/C=C2\SC(N3CCCCC3)=NC2=O)ccc1O | inconclusive: 17.8 µM [falling, single point] |  |
| Cn1c(SCC(=O)N2CCCCC2)nc2c(c1=O)SCC2 |  | inconclusive: 4.53% |
| C=CCOC(=O)C1=C(C)OC(N)=C(C#N)C1c1ccc(OC)c(CSc2ccccn2)c1 (stereo unspecified) | inconclusive: 29.1 µM [falling, single point] |  |
| COc1cccc(OCCOCCNCCO)c1 |  | inactive: -0.496% |
| Cc1ccccc1-c1nc2ccccc2c(=O)n1/N=C/c1ccccc1[N+](=O)[O-] | inconclusive: 35.5 µM [falling, single point] |  |
| CCOC(=O)c1c(-c2ccccc2)oc2ccc(OCC(O)CN(C)C)cc12 (stereo unspecified) |  | inconclusive: -3.53% |
| COc1ccc(-c2ccccc2NC(=O)C2CCCN(Cc3ccc(C)o3)C2)cc1 (stereo unspecified) |  | inactive: 17.9% |
| CC(=C/c1ccco1)/C=N/NC(=O)CSc1nnc(SCc2ccc(C)cc2)s1 |  | inconclusive: -3.92% |
| COc1ccc(C(=O)N/N=C/c2ccc(OC)c(COc3ccc(F)cc3F)c2)cc1 |  | inconclusive: 2.8% |
| CC(=O)c1cc(-c2ccccc2)n(CCC(=O)NC(C)(C)C)c1C |  | inconclusive: 2.75% |
| COCCN1C=C(C(=O)OC)C(c2cc3c(cc2Br)OCO3)C(C(=O)OC)=C1 |  | inactive: -3.32% |
| O=S(=O)(c1ccc(Br)s1)N1CCN(c2ccccn2)CC1 |  | inconclusive: -0.787% |
| COc1ccc(OC)c(Nc2nc(NCc3ccco3)nc(N)c2[N+](=O)[O-])c1 |  | inactive: -21.1% |
| O=C(C1=NN(c2ccccc2)C2C(=O)N(c3cccc(Cl)c3)C(=O)C12)c1ccccc1 (stereo unspecified) |  | inactive: 9.54% |
| COc1ccc(CCNC(=O)c2ccc3c(c2)N(Cc2ccc(C)cc2)CCS3)cc1OC |  | inconclusive: 2.89% |
| C=CCC1(O)C(=O)N2C(=C1C(=O)OCC)c1ccc3ccccc3c1CC2(C)C (stereo unspecified) |  | inactive: 0.501% |
| COc1cc(/C=C2/CC/C(=C/c3ccc(O)c(OC)c3)C2=O)ccc1O | inconclusive: 25.1 µM [falling, single point] |  |
| CCOC(=O)c1c(C)[nH]c(C(=O)COC(=O)CNC(=O)c2ccc(Cl)cc2)c1C |  | inconclusive: -25.2% |
| CC(=O)c1c(C)[nH]c(C(=O)NCc2ccccc2F)c1C |  | inactive: 1.84% |
| COc1cc(/C=C(\C#N)C(=O)NCC2CCCO2)ccc1OCCC(C)C (stereo unspecified) |  | inconclusive: 13.8% |
| CCOc1ccc(C2OC34CCCCC3C(C#N)(C#N)C2(C#N)C(=N)O4)cc1OC (stereo unspecified) |  | inactive: 19.3% |
| Cc1ccc2cc(CCNS(=O)(=O)c3ccc(Br)cc3)c(=O)[nH]c2c1C | inconclusive: 12.6 µM [falling, partial curve] |  |

4 compounds from above, arranged by SMILES length, high to low.

| SMILES | Potency | activity change, negative = inhibition |
| --- | --- | --- |
| CCCCn1ccnc1C(=O)c1cccc(S(=O)(=O)N2CC(C)CC(C)C2)c1 (stereo unspecified) | inconclusive: 1.64 µM [rising, partial curve] |  |
| CC(=O)c1cc(-c2ccccc2)n(CCC(=O)NC(C)(C)C)c1C |  | inconclusive: 2.75% |
| CCOc1ncccc1C(=O)OCc1ccccc1 |  | inconclusive: 6.22% |
| COc1cccc(OCCOCCNCCO)c1 |  | inactive: -0.496% |

Further records follow:

| SMILES | Potency | activity change, negative = inhibition |
| --- | --- | --- |
| Cc1cn([C@H]2C=C[C@@H](CO)O2)c(=O)[nH]c1=O |  | inconclusive: -16.2% and inconclusive: -2.38% |
| CC1=CC(=C2C=CC(=O)C=C2)C=C(C)N1C |  | inconclusive: -4.89% |
| CC(=O)c1c(C)[nH]c(C(=O)OCC(=O)N(CC(C)C)C2CCS(=O)(=O)C2)c1C (stereo unspecified) | inconclusive: 23.1 µM [falling, partial curve] |  |
| Cc1c(C(=O)Nc2ccc(F)c(F)c2)oc2ccc(S(=O)(=O)N3CCCCC3)cc12 |  | inconclusive: 10.8% |
| CN(Cc1ccc(OC(F)F)cc1)C(=O)/C=C/c1ccc(S(=O)(=O)N2CCOCC2)cc1 |  | inactive: -7.19% |
| Cc1cc(C)c2c(c1)-c1cc(C)nn1C(c1ccc3c(c1)OCO3)N2 (stereo unspecified) |  | inactive: -0.0027% |
| COc1cccc(-c2nn3c(-c4ccccn4)nnc3s2)c1 | inconclusive: 35.5 µM [falling, single point] |  |
| CCCc1cc(C(=O)Nc2cccc3ccccc23)n(C)n1 | inconclusive: 35.5 µM [falling, single point] |  |
| CC(C)(Oc1ccc(Cl)cc1)C(=O)N/N=C/c1cn[nH]c1-c1ccccc1 |  | inconclusive: 22.3% |
| CCOc1ccccc1NC(=O)c1c(NC(=O)CCC(=O)O)sc2c1CCCCC2 |  | inconclusive: -17.1% |
| COc1ccccc1N(CC(=O)NC1CCCCC1)C(=O)CNC(=O)c1cccs1 | inconclusive: 14.1 µM [falling, single point] |  |
| CCOC(=O)c1c(C)[nH]c(C)c1C(=O)Cn1nnc(-c2ccccc2C)n1 |  | inconclusive: 3.73% |
| COc1ccc(-c2cccc(C3CC=CC4C3C(=O)N(Cc3ccccc3)C4c3ccc4ccccc4c3)c2)cc1 (stereo unspecified) |  | inconclusive: -4.49% |
| CCCCC(O)(CCCC)C(=O)NN(C(=O)c1cccnc1Cl)c1ccccc1 |  | inconclusive: -0.457% |
| NC(=O)c1ccsc1NC(=O)COC(=O)c1ccc(Cl)c(N)c1 | inconclusive: 23.1 µM [falling, partial curve] |  |
| O=S(=O)(CC(c1ccccc1)N1CCCCC1)c1ccc(Cl)cc1 (stereo unspecified) |  | inconclusive: 18.5% |
| COc1ccc(-c2ccc3c(=O)cc(-c4ccsc4)oc3c2)cn1 |  | inactive: 2.05% |
| COCc1cc(=O)[nH]c(SCCS(=O)(=O)c2ccc(C)cc2)n1 |  | inconclusive: -24.7% |
| Nc1cc(S(=O)(=O)Nc2ccc(Cl)cc2)ccc1N1CCOCC1 |  | inactive: -11.1% |
| COC(=O)C(NC(C)=O)(Nc1nc2ccc(S(C)(=O)=O)cc2s1)C(F)(F)F (stereo unspecified) |  | inconclusive: 6.33% |
| CN(C)C=NC(=O)c1cc(C(=O)c2ccc(Cl)cc2Cl)c[nH]1 | inconclusive: 25.1 µM [falling, single point] |  |
| O=C(/C=C/c1ccc(N2CCCCC2)c([N+](=O)[O-])c1)c1ccc(O)cc1 | inconclusive: 11.2 µM [falling, partial curve] |  |
| Oc1ccccc1-c1nc(N2CCCC2)c2ccccc2n1 |  | inconclusive: 16.4% |
| O=C(NC(=S)Nc1cccc2cccnc12)c1ccccc1 | inconclusive: 0.282 µM [falling, full curve, poor fit] |  |
